# Experimental data reported in article PMC4565980.
# No constants are given. Whether binding was seen depends on the method and setting. In cells and extracts the contact can be indirect. Some entries that bind do so weakly or less than the wild type. Tags and fused reporters may be left off the sequences shown.
# T1: v5-tagged lamin A, in vitro translated (human), P02545
# T1 chain: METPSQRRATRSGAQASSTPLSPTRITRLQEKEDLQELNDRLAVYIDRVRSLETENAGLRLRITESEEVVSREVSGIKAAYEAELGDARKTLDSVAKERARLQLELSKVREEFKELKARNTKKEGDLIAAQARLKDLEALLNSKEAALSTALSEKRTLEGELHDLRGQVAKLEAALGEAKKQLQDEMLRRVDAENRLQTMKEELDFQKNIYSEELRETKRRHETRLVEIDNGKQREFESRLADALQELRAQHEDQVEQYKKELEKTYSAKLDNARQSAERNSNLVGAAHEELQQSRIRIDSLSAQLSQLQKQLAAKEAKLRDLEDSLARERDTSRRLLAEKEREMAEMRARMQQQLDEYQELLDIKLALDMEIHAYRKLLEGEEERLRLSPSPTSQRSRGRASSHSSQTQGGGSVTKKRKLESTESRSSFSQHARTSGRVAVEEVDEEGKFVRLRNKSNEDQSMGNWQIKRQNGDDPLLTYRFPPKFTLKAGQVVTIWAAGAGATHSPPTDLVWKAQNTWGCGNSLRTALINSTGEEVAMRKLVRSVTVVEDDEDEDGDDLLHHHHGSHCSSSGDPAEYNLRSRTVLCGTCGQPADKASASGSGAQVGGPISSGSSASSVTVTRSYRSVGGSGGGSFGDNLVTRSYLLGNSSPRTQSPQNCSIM
# Columns and labels:
# [1] = target: v5-tagged lamin A, in vitro translated (human) (UniProt P02545); test: co-IP; in vitro transcribed/translated proteins, 20 µl of each mixed, 4 µg anti-v5 antibody and protein-G Dynabeads in PBS for 12 hr at 4°C; washes in 0.5% sodium deoxycholate, 150 mM NaCl, 1% NP-40, 0.1% SDS, 50 mM TRIS pH 7.4; western blot, prey normalised to the v5 signal
# [2] = target: T1, v5-tagged lamin A, in vitro translated …; test: as above; settings: remark: other sources report otherwise
binding [1],binding [2],Binder
binds,–,"myc-LAP2α, in vitro translated (protein, UniProt P42166 1-694) MPEFLEDPSVLTKDKLKSELVANNVTLPAGEQRKDVYVQLYLQHLTARNRPPLPAGTNSKGPPDFSSDEEREPTPVLGSGAAAAGRSRAAVGRKATKKTDKPRQEDKDDLDVTELTNEDLLDQLVKYGVNPGPIVGTTRKLYEKKLLKLREQGTESRSSTPLPTISSSAENTRQNGSNDSDRYSDNEEGKKKEHKKVKSTRDIVPFSELGTTPSGGGFFQGISFPEISTRPPLGSTELQAAKKVHTSKGDLPREPLVATNLPGRGQLQKLASERNLFISCKSSHDRCLEKSSSSSSQPEHSAMLVSTAASPSLIKETTTGYYKDIVENICGREKSGIQPLCPERSHISDQSPLSSKRKALEESESSQLISPPLAQAIRDYVNSLLVQGGVGSLPGTSNSMPPLDVENIQKRIDQSKFQETEFLSPPRKVPRLSEKSVEERDSGSFVAFQNIPGSELMSSFAKTVVSHSLTTLGLEVAKQSQHDKIDASELSFPFHESILKVIEEEWQQVDRQLPSLACKYPVSSREATQILSVPKVDDEILGFISEATPLGGIQAASTESCNQQLDLALCRAYEAAASALQIATHTAFVAKAMQADISQAAQILSSDPSRTHQALGILSKTYDAASYICEAAFDEVKMAAHTMGNATVGRRYLWLKDCKINLASKNKLASTPFKGGTLFGGEVCKVIKKRGNKH"
–,binds,"HA-emerin, in vitro translated, P50402 1-254 (protein) MDNYADLSDTELTTLLRRYNIPHGPVVGSTRRLYEKKIFEYETQRRRLSPPSSSAASSYSFSDLNSTRGDADMYDLPKKEDALLYQSKGYNDDYYEESYFTTRTYGEPESAGPSRAVRQSVTSFPDADAFHHQVHDDDLLSSSEEECKDRERPMYGRDSAYQSITHYRPVSASRSSLDLSYYPTSSSTSFMSSSSSSSSWLTRRAIRPENRAPGAGLGQDRQVPLWGQLLLFLVFVIVLFFIYHFMQAEEGNPF"
